These results are taken from PMC11001197, “The PII protein interacts with the Amt ammonium transport and modulates nitrate/nitrite assimilation in mycobacteria” (Frontiers in Microbiology, 2024).

Amino acid sequences for entries named in this document (tags omitted). A change or cut given only in a name is not applied to a line headed by its entry.
UniProt P9WN31: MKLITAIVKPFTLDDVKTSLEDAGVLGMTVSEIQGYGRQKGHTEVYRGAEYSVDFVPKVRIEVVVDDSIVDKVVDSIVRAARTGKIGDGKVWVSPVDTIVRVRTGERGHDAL
UniProt P9WQ65: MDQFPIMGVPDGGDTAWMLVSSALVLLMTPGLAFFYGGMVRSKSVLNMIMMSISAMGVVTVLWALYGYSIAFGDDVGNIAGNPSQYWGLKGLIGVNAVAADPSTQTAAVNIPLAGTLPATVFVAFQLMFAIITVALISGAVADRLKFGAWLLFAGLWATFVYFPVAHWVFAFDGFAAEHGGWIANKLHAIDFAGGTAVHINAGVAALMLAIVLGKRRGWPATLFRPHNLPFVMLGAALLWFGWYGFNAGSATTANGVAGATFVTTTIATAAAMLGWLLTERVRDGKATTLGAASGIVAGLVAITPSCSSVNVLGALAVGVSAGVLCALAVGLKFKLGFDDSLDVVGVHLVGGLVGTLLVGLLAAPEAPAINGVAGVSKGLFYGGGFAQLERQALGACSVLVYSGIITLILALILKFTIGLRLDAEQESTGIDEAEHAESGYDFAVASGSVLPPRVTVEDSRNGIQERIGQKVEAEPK

This test has as its target M. tuberculosis PII protein (GlnB), His tag fusion (M. tuberculosis) (UniProt P9WN31). Nature of the test: pull-down; both purified.

Results are given in words; binding and its absence hold for the method and conditions named. Binding calls can cover weak binding; strength is not graded here.

On to “C-terminal domain of the M. tuberculosis ammonium transporter Amt (AmtCTR), without tags (from UniProt P9WQ65) (domain or fragment)”, for which the binding entry was “binds”.
